# The other results are listed elsewhere or left out. For some assays here: Construct or isoform of the protein are uncertain.
# Columns and labels:
# Assay in all cases: protein microarray (ProtoArray v5.0), streptavidin-Alexa Fluor 647
# Settings in all cases: 3'-biotin; 20 mM Tris (pH 7.5), 5 mM MgCl2, 100 mM KCl, 0.1% Tween-20, A/T-rich and random oligonucleotide blockers; temperature not stated; high values mean tight binding
# CPLX1 (human) = system: CPLX1 (human)
# CPLX2 (human) = system: CPLX2 (human)
# CPSF2 (human) = system: CPSF2 (human)
# CPSF3 (human) = system: CPSF3 (human)
# CRABP2 (human) = system: CRABP2 (human)
# CRADD (human) = system: CRADD (human)
# CRB3 (human) = system: CRB3 (human)
# CREB3L2 (human) = system: CREB3L2 (human)
# CRK (human) = system: CRK (human)
# CRKL (human) = system: CRKL (human)
# CRLF3 (human) = system: CRLF3 (human)
# CROP (human) = system: CROP (human)
# CROT (human) = system: CROT (human)
# CRTAC1 (human) = system: CRTAC1 (human)
# CRY1 (human) = system: CRY1 (human)
# CRYAA (human) = system: CRYAA (human)
# CRYBA1 (human) = system: CRYBA1 (human)
# CRYBB2 (human) = system: CRYBB2 (human)
# CRYZ = biological target: T1, CRYZ (UniProt Q08257)
# T1 sequence: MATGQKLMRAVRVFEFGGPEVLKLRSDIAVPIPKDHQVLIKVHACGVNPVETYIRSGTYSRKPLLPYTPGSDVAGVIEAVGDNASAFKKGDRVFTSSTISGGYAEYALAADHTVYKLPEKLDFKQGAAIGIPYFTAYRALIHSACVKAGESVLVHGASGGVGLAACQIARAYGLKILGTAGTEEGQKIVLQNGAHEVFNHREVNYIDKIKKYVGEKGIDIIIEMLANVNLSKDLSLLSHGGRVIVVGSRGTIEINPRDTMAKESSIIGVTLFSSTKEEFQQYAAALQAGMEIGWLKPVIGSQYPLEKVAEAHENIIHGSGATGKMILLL
# CRYZL1 (human) = system: CRYZL1 (human)
sequence,measurement,setting,value
GGGAGGCTGAGGCAGG [G4-1 biotinylated (PQS2)],binding signal,CPLX1 (human),-0.333 z-score
same,binding signal,CPLX2 (human),-0.312 z-score
same,binding signal,CPSF2 (human),-0.313 z-score
same,binding signal,CPSF3 (human),-0.306 z-score
same,binding signal,CRABP2 (human),-0.343 z-score
same,binding signal,CRADD (human),-0.354 z-score
same,binding signal,CRB3 (human),-0.33 z-score
same,binding signal,CREB3L2 (human),-0.32 z-score
same,binding signal,CRK (human),-0.325 z-score
same,binding signal,CRKL (human),-0.314 z-score
same,binding signal,CRLF3 (human),-0.342 z-score
same,binding signal,CROP (human),-0.332 z-score
same,binding signal,CROT (human),-0.288 z-score
same,binding signal,CRTAC1 (human),-0.301 z-score
same,binding signal,CRY1 (human),-0.3 z-score
same,binding signal,CRYAA (human),-0.336 z-score
same,binding signal,CRYBA1 (human),-0.341 z-score
same,binding signal,CRYBB2 (human),-0.235 z-score
same,binding signal,CRYZ,-0.319 z-score
same,binding signal,CRYZL1 (human),-0.301 z-score

# 2 records picked at random from those above:
sequence,measurement,setting,value
GGGAGGCTGAGGCAGG [G4-1 biotinylated (PQS2)],binding signal,CRYBA1 (human),-0.341 z-score
same,binding signal,CRADD (human),-0.354 z-score

# From paper PMC5996148
